Measurements from the supplement of paper PMC3334620.
The full ranking holds about 33,000 sequences; the median of “E-score (-0.5 to 0.5)” is about -0.015, and the highest 2% start at about 0.3. The list shows a part of the results.

Target: T1, Abf1 (UniProt P14164)
T1 sequence: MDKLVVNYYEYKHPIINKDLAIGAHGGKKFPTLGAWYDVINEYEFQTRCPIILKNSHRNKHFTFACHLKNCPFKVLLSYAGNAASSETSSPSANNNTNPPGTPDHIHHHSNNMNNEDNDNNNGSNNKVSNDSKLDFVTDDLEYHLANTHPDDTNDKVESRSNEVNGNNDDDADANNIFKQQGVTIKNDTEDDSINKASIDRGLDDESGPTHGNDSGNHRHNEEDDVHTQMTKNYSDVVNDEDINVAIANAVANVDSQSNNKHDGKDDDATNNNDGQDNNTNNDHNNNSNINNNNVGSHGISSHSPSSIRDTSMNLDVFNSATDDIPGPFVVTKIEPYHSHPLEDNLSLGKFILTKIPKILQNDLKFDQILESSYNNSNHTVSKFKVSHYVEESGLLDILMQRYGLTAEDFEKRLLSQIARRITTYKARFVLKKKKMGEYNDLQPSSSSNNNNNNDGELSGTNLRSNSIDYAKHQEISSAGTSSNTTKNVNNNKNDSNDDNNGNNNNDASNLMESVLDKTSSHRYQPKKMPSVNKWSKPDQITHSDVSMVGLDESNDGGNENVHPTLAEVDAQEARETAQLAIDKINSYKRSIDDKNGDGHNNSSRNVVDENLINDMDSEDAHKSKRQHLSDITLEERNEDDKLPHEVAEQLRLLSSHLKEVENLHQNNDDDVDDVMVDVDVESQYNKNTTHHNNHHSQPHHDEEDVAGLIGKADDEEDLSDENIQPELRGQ
Assay: PBM E-score (8-mer binding enrichment) (E-score (-0.5 to 0.5)); higher = stronger / more preferred TF binding
Details: protein concentration: 200 nM; construct: GST-full length
Description: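 Universal 'all 10-mer' protein binding microarrays (Agilent AMADID 015681) probed with GST-tagged S. cerevisiae TFs (full-length or DBD) made by in vitro transcription/translation (PURExpress), about 100-200 nM. Bound TF was detected with fluorescent anti-GST. Each ungapped 8-mer (which stands for itself and its reverse complement) is scored by the PBM enrichment score (E-score), a modified Wilcoxon-Mann-Whitney statistic from -0.5 to +0.5, computed with the Universal PBM Analysis Suite. Scale: above 0.35 generally sequence-specific binding.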

Sequence	PBM E-score
AAACGAGG	0.0788
TAACTCGA	0.143
CAGTAGCG	-0.07
AACTTGTC	0.0305
CTAGGTAA	-0.147
GTGGTCGA	0.0486
ACAAATCC	-0.0383
CCGTAAGC	0.0521
GGGTCATA	-0.0763
AACACGGG	0.0382
CCACGTGG	-0.143
CACCTTGA	-0.00716
ACCCACGC	-0.189
TTCGAGAA	0.059
CCTCGCCA	-0.305
GGCGGCTA	-0.0742
AGATCCTA	0.0773
AGACGCAC	-0.0441
GCATCAAA	0.0877
AAGACTAC	-0.0652
CCACGTGC	0.0459
GACTGGCC	-0.182
ATCCAAGC	-0.179
CATCTACA	0.0159
AAGCAAGT	-0.152

Sequence	PBM E-score
CCCACTAC	-0.109
ATAGACTA	0.0168
CCGAGTCG	-0.184
ACACTCAC	-0.0259
ACTCTTAA	-0.0406
ACTCATGC	-0.0313
TAACGGCA	0.17
AACCTGCG	-0.107
CAGCCAAA	-0.0235
CGCTTTCC	-0.0668
AAGTGGTG	-0.135
GAGTACAC	-0.0664
CTAGGTTA	0.163
GTGGAAAC	0.0949
CATAAACA	0.0594
ACAGGTCT	0.091
AAATTGAG	-0.124
ATTAGCGG	-0.0661
CGTTTAGC	-0.0044
ATAACCGC	-0.00286
AACCCTTG	-0.187
ATCAGGCG	0.0182
AGCTAATA	0.113
CATCGGAA	0.0244
AATGCACA	0.153

Sequence	PBM E-score
CCTCATCG	-0.0266
CGAATGCC	-0.18
GAGGTAGA	-0.12
CTTTAGTC	-0.0462
ATGCCGCG	0.0192
GACTGGAC	-0.111
CTAGACTA	-0.044
CTAGGGGC	-0.216
CTTAAACA	-0.00287
GCCAGTAC	-0.113
CGCAACCC	-0.103
CTGTCAGC	-0.139
ATCGAGGG	-0.137
ACTACTGG	-0.114
AAAAGCAT	0.0781
AATTCCGC	0.109
GGACCATA	-0.139
GATTCAAC	0.0326
GTGCGGAA	0.0933
ATGACCAC	0.0534
ACTTCACG	0.125
ACGATAGC	0.291
AAACACCG	-0.0545
AGCGACGC	0.122
ACTTTAGA	0.144

Sequence	PBM E-score
CAGTCTGC	-0.163
AGGGACAC	0.0733
GGGGCTTA	-0.303
CACAGATA	0.00079
ACGCATTC	-0.027
ACCTATTG	-0.0791
GGAATCCC	-0.151
GGTTATTA	0.126
ATCACCCA	0.246
GTACGACA	0.36
GGATCACC	0.247
CTTAATTC	0.128
GACAGCGA	-0.0707
ACGAATAT	0.209
CGCTTAGC	-0.221
CCGTGGCA	-0.0649
AGCACCCG	-0.0893
GCGGCTCC	-0.343
GAATCCAC	-0.00956
CATATCCG	0.0157
CGTGCAAG	0.169
AGCTCTAT	-0.0782
AGGTAAAC	-0.191
ATATAGCG	-0.0746
CTCCGTCC	-0.0828

No new results follow: an excerpt of the list.
Sequence	PBM E-score
ACGCATTC	-0.027
ACCTATTG	-0.0791
GGAATCCC	-0.151
GGTTATTA	0.126
ATCACCCA	0.246

The list goes on:

Sequence	PBM E-score
AGCACCAT	-0.199
CAACGTGC	0.057
AACGGCTC	0.00606
AGCTGTCA	0.0996
AACGCCCA	-0.0727
CAGAAACC	-0.152
CGTTCGGA	0.11
CACAGGGA	-0.184
CTCCACTC	-0.357
CGCCTTAG	-0.0841
AACGTACA	0.0978
CGGCCGGC	-0.0699
GGTAACTA	0.104
CCTAAAAG	-0.262
CAGGAAAG	-0.146
CAAGGCTG	-0.0693
GGCAGTCA	0.0837
CGTGCGTC	0.258
CATTCACC	0.0324
ACGCGTGA	0.291
ACTGTGGC	-0.117
CACAGGCA	-0.117
CGTTGATC	0.247
AAAGATGT	0.07
CCTAGCCC	-0.278

Sequence	PBM E-score
GAGGAGCC	-0.0802
ATATCGCG	0.382
AACGGAGA	-0.0536
ACTCCAGG	-0.142
GCTAGTAA	-0.0435
CAATCTAA	-0.0367
AGTGTATA	-0.0847
GAGTTCGC	0.0063
GACCGGTA	-0.12
AAACTACT	0.118
CGCGTGAG	0.00035
AGCGAGCT	0.0323
AGGTTCAC	-0.0626
AGTGAATC	-0.156
AAGGACCT	-0.037
CGGTTAAG	0.0216
CCGATCTC	-0.187
CGGTACAG	-0.11
CGATGACG	0.136
GCCAGTCA	-0.00571
ACTCAGTC	-0.2
CACATCCG	-0.119
GAATCCCC	-0.185
GCAAGAGC	-0.0192
GCAGGGCA	-0.0532

Looked up one by one from the entries so far (three):
Sequence	PBM E-score
AGGTTCAC	-0.0626
AAACTACT	0.118
ACTCCAGG	-0.142

(list continues)

Sequence	PBM E-score
ACGCTCAG	-0.151
AAAACATG	-0.0223
CAGTTACA	0.107
AGCATAAT	0.199
GCCCTCTA	-0.224
GCGATTCA	0.131
AGCTGATC	0.138
CTCTCGAC	-0.233
CACTGTGA	0.057
CTCTTGAA	-0.0403
AGATATCG	0.11
AGGGACCG	-0.0817
CGACGGGA	0.0357
AGTAGTAA	0.0953
AGGAGCGA	0.00316
ATTGGTCA	0.0586
ATCCGGCA	-0.192
ATGACTAG	0.054
AATTAGAC	0.0434
AGTCGAGA	0.167
ATCATCGA	0.175
TACGCAAA	-0.163
ATAGAACG	0.124
TCAACGGA	0.0616
CAACGATC	0.103

Sequence	PBM E-score
AAAGGCAG	0.17
TAGTGGCA	-0.0295
GATCGCGC	0.121
TCCCTAGA	0.146
AAGAGGCT	-0.148
ACATCTTC	-0.0131
GGTCGGCA	-0.183
CACGATAA	0.296
CATGCCGC	0.14
CAACCTGA	-0.0696
CGTTCATA	0.247
ACCTGGCC	-0.0752
CATATACG	0.217
ACGGAAAC	0.04
ACCGTTAA	0.235
GAGTTTGA	-0.128
AACAAGGA	0.0142
GGAGCTCC	-0.271
CCTGGGCG	-0.103
ATTTATCG	0.222
CGAGTGCC	-0.244
CCTAGCTA	-0.21
CCTACCAG	-0.297
GCATACTA	0.00916
TGAAATCA	0.226

Sequence	PBM E-score
CCGGGTCA	-0.186
CAGAAAGA	0.0742
CACATTTA	0.108
CGTTTGGC	0.0893
AGGTTGTG	-0.0254
ATGGCCGC	-0.281
CACGTAGA	0.0411
CCCATTCA	-0.164
ACTTGAAA	0.0258
ATACAACC	-0.264
ACCGATGA	0.0528
CGACTAAC	-0.0263
GAACCCCA	-0.281
ACTATGCG	0.00988
GCGTACAA	0.197
CACGGCTC	0.151
GGGCAAGA	0.0711
ACTCAGCG	0.0541
CTCGCATC	0.00256
AGCATGAA	-0.063
AATGGTCT	-0.0813
ATGACCTC	0.124
GATTAGAA	0.0552
CATGTACA	-0.0299
CCGTTTAC	-0.0155

Sequence	PBM E-score
CTTCAGAC	0.0482
CTATGTTA	0.00457
AATTGGCG	0.0955
CCGTGACG	0.198
AACTGCGC	-0.199
AGGGGAAA	-0.137
ATTACTCC	0.0358
AAGATTGT	0.0671
AAGATTTG	0.109
CAACGTCC	-0.147
GTAGCCAC	-0.0901
GATGATGA	0.223
CTATTTGC	-0.106
GAGTAGGA	-0.135
AAGATATC	0.201
CAACTAGA	-0.0511
CTTATATA	0.192
AAATTACA	0.106
CGCACTTC	-0.0888
GCGGCTTA	-0.276
GTCAAATA	0.169
CCTCGTTA	0.122
CTTTCAGC	-0.0533
GCCGAGAA	0.0108
AGTTTCTA	-0.0871

Sequence	PBM E-score
CAAGCACC	-0.12
GACTCGAC	-0.129
CTTACCTA	-0.0785
CTCCAAAA	-0.169
CGGCTATA	0.0716
AACCCCTT	-0.142
TCGATTAA	0.0311
AGTGCGCC	0.0331
CTAGCGCC	0.0207
ACCACACG	0.183
GCCTGGTA	-0.00699
CATGGAGG	-0.286
GGTCTAAC	-0.277
CACTACCA	0.124
AAGTGTGC	0.0477
GCTGTTAC	-0.136
GTAGAGAC	-0.14
AACCAACT	0.0493
ATTTGGTC	0.0338
ACATAACC	-0.0487
CAGCGTGG	-0.0616
CCTTTTGA	0.0587
ACGCATCC	-0.113
ATCCCATA	-0.107
CAAGTTGG	-0.0662

Sequence	PBM E-score
CCCGACAC	-0.283
CATGGTCC	-0.211
AGTCACAA	0.241
ATACTGCG	0.0144
GCAAGCCC	-0.191
CATGCGGC	-0.229
ATAGCAAA	-0.0407
GTATGAGA	0.145
CCAAGCGA	-0.0908
ATGAGGAA	-0.0977
AAGCGCGG	-0.173
GGTACAGA	0.00644
CAAGATAG	-0.0192
CACTCTCC	-0.0372
CCTTAATA	-0.125
GATGCATA	0.017
CCCCCCCA	-0.343
ACTGGTGA	0.141
GACCGCGA	-0.0117
CCACTCAC	0.0626
CATCCTGC	-0.0653
GCGATTAC	0.0444
AACCTTTC	-0.16
ATTGTCGG	-0.0187
GCGTGAGA	0.168

Looked up above.
GGTACAGA | PBM E-score: 0.00644
GCAAGCCC | PBM E-score: -0.191

(cont.)

Sequence	PBM E-score
ATTTTTGC	0.113
AAGAGAGT	-0.24
AACCAGCA	-0.213
CTAGAGCC	-0.208
CCACAACC	0.0977
CGGAAAAG	0.0286
AGGGATCC	-0.22
ATGTCGCG	0.276
CGAGAACG	0.154
GGTATCAA	0.0321
AGCACGAG	0.101
AATGAATT	0.142
GAAGAACC	-0.255
GCTGACCA	-0.12
GCGAGACC	-0.121
ACTTGTTC	-0.00499
ACAGGACC	-0.0782
CCTCCCGC	-0.253
AGTGGGTA	-0.143
GTTGGGGA	-0.147
CACATGGG	-0.316
AGCATCCC	-0.14
AGACCGAT	-0.112
TCTCCGCA	-0.158
CACGCAGA	0.0714

Sequence	PBM E-score
AAAAACGA	0.295
TATGGGAA	-0.0816
ACTACAAC	0.171
GAAGCGTC	-0.0802
GAACGGGC	-0.174
CCTCCTCG	-0.143
AGTCTGCG	-0.234
CAGGTACC	-0.219
AAACTCGG	-0.0387
ACCTCCTG	-0.0233
ACCCTGGG	-0.161
GATCAAGA	0.0482
CACCGAGG	-0.099
AATGAAAC	0.0946
AACGCGGG	-0.0693
CATCAGCC	-0.0636
ACCTGGGG	-0.215
CCGCTTAA	0.0204
CGACGCCC	-0.0872
